Source: ChEMBL document CHEMBL3988442, “University of Dundee, Small-Polar-MMV Screening Library” (2021).

Mtb cholesterol medium: 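Phenotypic screen: M. tuberculosis growth, cholesterol and DPPC medium, 4 days; the read-out is not stated. Concentration: 50 µM. Direction is inferred from retests: higher values go with more growth inhibition. Of about 69,000 compounds tested this way, about 370 (0.54%) reached 50% or more in at least one test.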
Mtb glucose medium: 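Whole-cell growth test on Mycobacterium tuberculosis, read after 3 days in glucose-containing 7H9 medium; the read-out is not stated. Concentration: 50 µM. The record gives no direction; compounds that gave an IC50 in retests scored well above the rest, so higher reads as more growth inhibition. Of about 69,000 compounds tested this way, about 760 (1.1%) reached 50% or more in at least one test.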

Results are given as percent effect. The controls that fix the scale are not given in the record; negative values are as filed. This is an unselected part of the compounds tested. Two or more numbers in one place are separate tests of the same structure; such repeats can differ widely.

With CC(C)COCCC(=O)Nc1cc(-n2nnnc2C2CC2)ccc1F the screen gave Mtb cholesterol medium: -2.283%; Mtb glucose medium: 5.921% and 10.65%.
With Cc1cnc2n(c1=O)C(CC(=O)NCc1ccccc1Cl)CS2 (configuration not stated) the screen gave Mtb cholesterol medium: -20.84%; Mtb glucose medium: -12.15%.
With Cc1cc2[nH]c(=O)oc2cc1S(=O)(=O)N1C[C@@H](N(C)C)[C@H](C(C)C)C1 the screen gave Mtb cholesterol medium: 14.09%; Mtb glucose medium: -6.199%.
With COc1ccccc1C(=O)N1CCN(C(=O)CCn2ccnc2)CC1 the screen gave Mtb cholesterol medium: 17.43%; Mtb glucose medium: 4.741% and 11.92%.
With Cc1cc(NC(C)c2nncn2C2CCCC2)n2nc(C)cc2n1 (configuration not stated) the screen gave Mtb cholesterol medium: 5.574%; Mtb glucose medium: -1.42% and 1.961%.
With O=C(O)C(F)(F)F.O=C(O)C(F)(F)F.O=C(O)C(F)(F)F.[H][C@]12C[C@@H](CN(C)C)N(C(C)C)[C@@]1([H])CCN(c1ncc(F)cn1)C2 the screen gave Mtb cholesterol medium: -13.31%; Mtb glucose medium: -2.182% and -12.02%.
With Cc1cc(N2CCCC2(C)c2nc(C)cc(C(=O)N(C)C)n2)ncn1 (configuration not stated) the screen gave Mtb cholesterol medium: -1.976% and -2.757%; Mtb glucose medium: -11.21%.
With Cc1ccc2c(c1)c(CNC(=O)C1CCN(C(C)C)CC1)nn2C the screen gave Mtb cholesterol medium: -4.254%; Mtb glucose medium: -20.82%.
With Cc1nn(C)cc1CN(Cc1ccccn1)Cc1ccccc1Cl the screen gave Mtb cholesterol medium: 0.6552%; Mtb glucose medium: 31.81%.
With CCOCCN1CCN(c2ccc(C#N)cn2)CC1CC (configuration not stated) the screen gave Mtb cholesterol medium: -9.142%; Mtb glucose medium: 7.937%.
With O=C(Cc1cccnc1)N1CCC2(CC1)CCN(C1CCOCC1)CC2.O=C(O)C(F)(F)F.O=C(O)C(F)(F)F the screen gave Mtb cholesterol medium: -21.63%; Mtb glucose medium: -7.379% and -1.173%.
With COc1ccccc1CC(=O)N1CCC(NCc2cccnc2)CC1 the screen gave Mtb cholesterol medium: -21.39%; Mtb glucose medium: -34.62%.
With CN1C(=O)CC(c2cnn(C)c2)C12CCN(C(=O)c1ccnnc1)CC2 (configuration not stated) the screen gave Mtb cholesterol medium: -28.66%; Mtb glucose medium: 2.969%.
With CC(C)CNC(=O)CNC(=O)Nc1cccc(Cl)c1-n1cccn1 the screen gave Mtb cholesterol medium: -14.1%; Mtb glucose medium: -29.03%.
With NC(=O)CSc1ccccc1NCc1nc(Cc2ccccc2)no1 the screen gave Mtb cholesterol medium: -2.274%; Mtb glucose medium: 3.837% and -0.4441%.
With CN(C)Cc1nc(C(C)(C)NC(=O)c2nc3ccccc3s2)no1 the screen gave Mtb cholesterol medium: -3.1%; Mtb glucose medium: 13.83% and 11.18%.
With Cc1cnccc1-c1cnn(CCNC(=O)c2ccccn2)c1C1CC1.Cl the screen gave Mtb cholesterol medium: 2.464%; Mtb glucose medium: 2.693%.
With [H][C@@]12CN(C(=O)[C@H]3CCCO3)C[C@]1([H])C(=O)N(Cc1cccc(C)c1)C2 the screen gave Mtb cholesterol medium: 3.055%; Mtb glucose medium: -7.272%.
With O=C(N1CCCC1)N1CCC2(CC1)C(=O)N(CC1CC1)c1ccccc12 the screen gave Mtb cholesterol medium: -4.967%; Mtb glucose medium: 10.57%.
With CCN(C)S(=O)(=O)N1CCCC(c2cccc(C(=O)O)c2)C1 (configuration not stated) the screen gave Mtb cholesterol medium: -0.9%; Mtb glucose medium: 5.018% and 4.513%.
With COc1cccc(OC)c1-c1ccnc2cc(CC(=O)NC3CC3)nn12 the screen gave Mtb cholesterol medium: -6.563%; Mtb glucose medium: 33.22%.
With Cn1c(Cn2ccnc2)nnc1C1CCCN(Cc2ccncc2)C1 (configuration not stated) the screen gave Mtb cholesterol medium: 26.37%; Mtb glucose medium: 17.97% and -3.731%.
With N#Cc1c(-c2ccccc2)csc1N the screen gave Mtb cholesterol medium: 0.082%; Mtb glucose medium: 13.35%.
With O=C(COc1cccc(F)c1)N1C[C@@H](CN2CCCC2)C[C@H](CO)C1 the screen gave Mtb cholesterol medium: -12.76%; Mtb glucose medium: -3.051%.
With CN(C)S(=O)(=O)CCCN1CCc2c(ncn2C2CC2)C1 the screen gave Mtb cholesterol medium: -35.07%; Mtb glucose medium: 11.88%.
With Cc1nnc2n1CCN(CCOc1ccccc1C#N)C2 the screen gave Mtb cholesterol medium: -32.66%; Mtb glucose medium: -5.224%.
With Cc1cc(CCC2CN(Cc3ccccc3C(=O)O)CCO2)ncn1 (configuration not stated) the screen gave Mtb cholesterol medium: -9.914%; Mtb glucose medium: -21.57%.
With O=C(CCC1CCCO1)NS(=O)(=O)c1ccc(Cl)cc1 (configuration not stated) the screen gave Mtb cholesterol medium: -22.87%; Mtb glucose medium: 2.851%.
With CNc1nc(CNC(=O)Nc2cccc(CN(C)C)c2)cs1 the screen gave Mtb cholesterol medium: 4.299%; Mtb glucose medium: 3.583%.
With COc1cccc(CNC(=O)c2ccccc2-n2cc(CN)cn2)c1 the screen gave Mtb cholesterol medium: -16.49%; Mtb glucose medium: -23.53%.
With NC(=O)CN1CCC(NC2CCCCc3ccccc32)CC1 (configuration not stated) the screen gave Mtb cholesterol medium: 11.33%; Mtb glucose medium: 11.43%.
With Clc1cccc(-c2nc(CNC3CCc4ncnn4C3)co2)c1 (configuration not stated) the screen gave Mtb cholesterol medium: -31.71%; Mtb glucose medium: -22.96%.
With CCn1cc(NC(=O)NCC(O)CN2CCCCC2)cn1 (configuration not stated) the screen gave Mtb cholesterol medium: 3.295%; Mtb glucose medium: 2.019%.
With Br.O=C(CN(C1=NCCCC1)c1ccccc1)c1ccc2c(c1)OCCO2 the screen gave Mtb cholesterol medium: 9.641%; Mtb glucose medium: 27.43%.
With Cc1ncccc1Oc1nccnc1C1CCN(S(C)(=O)=O)CC1 the screen gave Mtb cholesterol medium: -10.88%; Mtb glucose medium: 6.451%.
With Cc1nnc2n1CCN(C(=O)c1ccn(-c3cccc(F)c3)n1)C2 the screen gave Mtb cholesterol medium: 15.85%; Mtb glucose medium: -1.877%.
With O=C(O)c1ccc(OC2CCOCC2)cc1 the screen gave Mtb cholesterol medium: 0.00989%; Mtb glucose medium: 17.93%.
With CN(C)C(=O)c1cccc(CN2CCOC(Cn3cccn3)C2)c1 (configuration not stated) the screen gave Mtb cholesterol medium: -16.15%; Mtb glucose medium: 1.662%.
With Cn1cc(CN2CCCC(CCc3ccc(F)cc3)C2)cn1 (configuration not stated) the screen gave Mtb cholesterol medium: -4.559%; Mtb glucose medium: -20.95%.
With [H][C@]12CCCCN1CCC[C@@]2(O)CN1CCN(Cc2ncccc2C)CC1 the screen gave Mtb cholesterol medium: 19.01%; Mtb glucose medium: 7.081%.
With O=C(CCc1cccc(F)c1F)N1CCCC(n2cncn2)C1 (configuration not stated) the screen gave Mtb cholesterol medium: 7.779%; Mtb glucose medium: 2.459% and -1.126%.
With NC(=O)COc1cccc(C(=O)Nc2cnc3n2CCCC3)c1 the screen gave Mtb cholesterol medium: -24.15%; Mtb glucose medium: -21.2% and -2.543%.

The first 4 entries again:

CC(C)COCCC(=O)Nc1cc(-n2nnnc2C2CC2)ccc1F read Mtb cholesterol medium: -2.283%; Mtb glucose medium: 5.921% and 10.65%.
Cc1cnc2n(c1=O)C(CC(=O)NCc1ccccc1Cl)CS2 (configuration not stated) read Mtb cholesterol medium: -20.84%; Mtb glucose medium: -12.15%.
Cc1cc2[nH]c(=O)oc2cc1S(=O)(=O)N1C[C@@H](N(C)C)[C@H](C(C)C)C1 read Mtb cholesterol medium: 14.09%; Mtb glucose medium: -6.199%.
COc1ccccc1C(=O)N1CCN(C(=O)CCn2ccnc2)CC1 read Mtb cholesterol medium: 17.43%; Mtb glucose medium: 4.741% and 11.92%.